PubChem BioAssay AID504808 – Drosophila RNAi Screening Center | 2011
The screen tested about 21,000 reagents; this is an unselected part of those that have a named target and a result. Over the whole deposit, 18 (0.084%) got an active call. 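Raw counts without plate normalisation, one of two replicates; the ratio scores behind the calls were not deposited.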 A plus sign joins genes that one reagent is predicted to hit. The record does not give: the amount of reagent, the time to read-out.

Purpose: 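Fly genes required to hold E2F transcription in check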 (primary screen)
Cells: Drosophila S2 cells
Knock-down reagent: long dsRNA against Drosophila genes
Measurement: 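Dual luciferase plate measurements; E2F-specific signal taken as firefly over Renilla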
Direction: E2F firefly: higher = more E2F reporter activity; Renilla normaliser: higher = more normaliser reporter signal
Rule for the call: 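Called active if the normalised E2F reporter went up by over 50%; the cutoff is arbitrary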

Target gene	PubChem SID	E2F firefly, rep 1	Renilla normaliser, rep 1	activity call
CG9582 (GeneID 34230)	SID104183059	1.50e5	5258	inactive
CG18265 (GeneID 39947)	SID104190102	1.60e5	7218	inactive
CG10474 (GeneID 37211)	SID104185785	1.42e5	4746	inactive
CG13088 (GeneID 34180)	SID104181984	1.40e5	5332	inactive
Nelf-E (GeneID 38982)	SID104190359	1.15e5	4138	inactive
CG15435 (GeneID 33655)	SID104180242	1.56e5	5139	inactive
Cbl (GeneID 38961)	SID104190556	89430	4255	inactive
Cbl (GeneID 38961)	SID104190903	1.06e5	4045	inactive
CG9855 (GeneID 40556)	SID104192136	73633	3403	inactive
CG3568 (GeneID 31383)	SID104198104	1.02e5	5502	inactive
CG10581 (GeneID 40326)	SID104191415	1.46e5	6477	inactive
CG13046 (GeneID 39791)	SID104189719	1.73e5	8834	inactive
tex (GeneID 40983)	SID104196309	1.31e5	6331	inactive
Zip48C (GeneID 36273)	SID104186106	126	27	inactive
Elp4 (GeneID 33775)	SID104182791	1.32e5	5011	inactive
CG13705 (GeneID 38587)	SID104188106	1.08e5	4254	inactive
levy (GeneID 37728)	SID104184081	1.14e5	4230	inactive
CtsF (GeneID 40628)	SID104191848	71516	3602	inactive
CtsF (GeneID 40628)	SID104191987	83550	3911	inactive
CtsF (GeneID 40628)	SID104191988	1.32e5	6746	inactive
Jon99Cii (GeneID 43544)	SID104196650	1.24e5	6704	inactive
Stim (GeneID 32556)	SID104199950	8478	768	inactive
CG5498 (GeneID 40250)	SID104191400	69463	3657	inactive
CG14763 (GeneID 35757)	SID104186289	1.47e5	5236	inactive
CG12991 (GeneID 32734)	SID104199303	1.59e5	6086	inactive
Polr3D (GeneID 40002)	SID104190277	75556	3960	inactive
CG12224 (GeneID 41453)	SID104194272	1.36e5	5919	inactive
CanB2 (GeneID 46456)	SID104187147	59588	3453	inactive
CG3008 (GeneID 33693)	SID104180352	1.45e5	5083	inactive
CG14374 (GeneID 50026)	SID104194626	1.17e5	5591	inactive
Drs (GeneID 38419)	SID104188449	1.02e5	4267	inactive
CG31776 (GeneID 33568)	SID104180508	1.37e5	5163	inactive
lft (GeneID 34405)	SID104182028	1.47e5	5233	inactive
dlg1 (GeneID 32083)	SID104198687	86731	3223	inactive
dlg1 (GeneID 32083)	SID104198688	78229	2626	inactive
dlg1 (GeneID 32083)	SID104199559	1.45e5	5879	inactive
dlg1 (GeneID 32083)	SID104200116	8501	752	inactive
CG13870 (GeneID 37308)	SID104186221	1.31e5	5295	inactive
CG15048 (retired record) (GeneID 32842)	SID104199416	1.51e5	6110	inactive
Ugt303B1 (GeneID 42775)	SID104194933	1.05e5	4933	inactive
CG18284 (GeneID 34460)	SID104182453	91145	3825	inactive
CG18284 (GeneID 34460)	SID104200548	86626	3287	inactive
Cpr47Ed (GeneID 36192)	SID104187123	1.16e5	4089	inactive
osi (GeneID 50459)	SID104182723	1.11e5	4407	inactive
PK2-R2 (GeneID 41638)	SID104196240	1.20e5	5689	inactive
CG7179 (GeneID 34059)	SID104182812	1.56e5	5403	inactive
CG2116 (GeneID 31735)	SID104197998	7302	772	inactive
RpL35 (GeneID 31483)	SID104198139	54200	5015	inactive
Dysb (GeneID 40052)	SID104190522	1.70e5	7104	inactive
His1:CG33816 + His1:CG33828 + His1:CG33819 + 21 more	SID104201058	1.33e5	6574	inactive
Lpt (GeneID 37795)	SID104184083	1.01e5	4280	inactive
Lpt (GeneID 37795)	SID104184307	78482	2914	inactive
eIF2gamma (GeneID 41843)	SID104192873	61525	2915	inactive
eIF2gamma (GeneID 41843)	SID104196665	75371	4262	inactive
NT5E-2 (GeneID 246458)	SID104186685	78849	2901	inactive
Acbp3 (GeneID 38783)	SID104190814	95708	3994	inactive
Ir64a (GeneID 38616)	SID104189551	92835	3869	inactive
Ir64a (GeneID 38616)	SID104189552	99400	3838	inactive
vanin-like (GeneID 31551)	SID104197232	76995	2131	inactive
Zip88E (GeneID 41847)	SID104195354	1.17e5	5687	inactive
Ugt36F1 (GeneID 35137)	SID104182393	1.04e5	4499	inactive
CG13004 (GeneID 32673)	SID104199315	1.65e5	6332	inactive
Obp19a (GeneID 33037)	SID104200279	1.46e5	7452	inactive
RpL7 (GeneID 34352)	SID104183209	99190	174	inactive
CG12729 (GeneID 31515)	SID104197676	37980	3740	inactive
CG10333 (GeneID 35112)	SID104181828	76010	3801	inactive
crol (GeneID 34592)	SID104183306	68296	3161	inactive
CG14989 (GeneID 38485)	SID104188240	79613	3672	inactive
CG5023 (GeneID 42400)	SID104195489	1.10e5	5424	inactive
CG14715 (GeneID 41403)	SID104194730	59644	3384	inactive
EAChm (GeneID 39637)	SID104189802	1.46e5	7783	inactive
Cpr65Eb (GeneID 38774)	SID104190818	90603	3965	inactive
CG32086 (GeneID 326195)	SID104190378	1.12e5	6219	inactive
eEF1beta (GeneID 45249)	SID104187211	69142	3749	inactive
CG14220 (GeneID 32954)	SID104199369	94891	4194	inactive
CG11825 (GeneID 36099)	SID104185882	1.51e5	5044	inactive
EloC (GeneID 37237)	SID104187215	1.45e5	5138	inactive
CG5958 (GeneID 34022)	SID104182707	1.37e5	5609	inactive
CG14502 (GeneID 37092)	SID104186265	76775	3507	inactive
D1 (GeneID 41095)	SID104196430	69619	3378	inactive
drosha (GeneID 35747)	SID104187399	3268	214	inactive
CG3746 (GeneID 37593)	SID104184204	1.08e5	4507	inactive
unpg (GeneID 35942)	SID104187505	1.56e5	4711	inactive
mus302 (GeneID 39874)	SID104189697	1.65e5	8707	inactive

Not a retest: an excerpt of the list.
Target gene	PubChem SID	E2F firefly, rep 1	Renilla normaliser, rep 1	activity call
NT5E-2 (GeneID 246458)	SID104186685	78849	2901	inactive
Acbp3 (GeneID 38783)	SID104190814	95708	3994	inactive
Ir64a (GeneID 38616)	SID104189551	92835	3869	inactive
Ir64a (GeneID 38616)	SID104189552	99400	3838	inactive
vanin-like (GeneID 31551)	SID104197232	76995	2131	inactive
Zip88E (GeneID 41847)	SID104195354	1.17e5	5687	inactive
Ugt36F1 (GeneID 35137)	SID104182393	1.04e5	4499	inactive
CG13004 (GeneID 32673)	SID104199315	1.65e5	6332	inactive
Obp19a (GeneID 33037)	SID104200279	1.46e5	7452	inactive
RpL7 (GeneID 34352)	SID104183209	99190	174	inactive
CG12729 (GeneID 31515)	SID104197676	37980	3740	inactive
CG10333 (GeneID 35112)	SID104181828	76010	3801	inactive
